Reference: PubChem BioAssay AID1508600 (Functional Genomics Laboratory (NCATS/FGL), 2020)
The whole screen tested about 53,000 sequences, of which about 3,700 (7%) were called active.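 The calls were made as follows: active = gene knockdowns whose robust z-score for IL-1 alpha signal is at least 2 or at most -2, so actives lie on both sides; inactive = the rest.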 The list shows a part of the results.

Assay: Components of the Cytosolic LPS Sensing Pathway: Gene Identification via Genome-wide siRNA Screen;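 also: robust z of the log signal after scaling to non-targeting control siRNA wells of the plate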
Conditions: RAW264.7 macrophages, IL-1a HTRF, actives lie on both sides, screened at 100 nM (by protocol), cells primed 5 h with Pam3CSK4 first
In short: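 Supernatant IL-1a by HTRF from RAW264.7 cells primed with Pam3CSK4 (5 hours) and transfected with LipidA (24 hour) after 48h siRNA knockdown at 100 nM; cell viability checked with CellTiter-Glo.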

| Sequence | z-score |
| --- | --- |
| UCUGACAUUGACUCUAGCCTT against Fbxw16 | active: -2.5 |
| GCUAUGUAUCCCACCAAAATT against Enpp3 | inactive: -0.357 |
| GGGUUCCUACGAAUUCUACTT against Bpi | inactive: 0.734 |
| GUUUUCUGAGGUGAACAGATT against Ankrd13c | inactive: -0.444 |
| CGCUACGUCCAGUAUCACCTT against Tmem192 | inactive: -0.471 |
| GCAUCUUAUUUAAUUCCCATT against Mrpl39 | inactive: -1.91 |
| GGCUUUUGAUGAGGUAAAATT against Plekho2 | inactive: -1.12 |
| CCGUGUGGAGGUACCCAUUTT against Zp3 | inactive: 1.09 |
| GGCUAUGGAGAAGCAGAUUTT against Srcin1 | inactive: -0.401 |
| GCCACGGAGAUAGCAGUUUTT against Hmgcll1 | inactive: 1.09 |
| GGGUUUGAUCAACAGAGCCTT against Id1 | inactive: -0.64 |
| GGUAACAAUCACCAUAUUCTT against 1700029F12Rik | inactive: -1.94 |
| GGAGUCUGUAUUCUCAACATT against Kif15 | inactive: -1.66 |
| GCCUCAUGUUGACAGUGUCTT against Alkbh7 | inactive: 1.38 |
| CCUCCAGGUGUUGAUCUGUTT against Btbd11 | inactive: -0.186 |
| GGAGACUUGAAAACAAUUATT against Brd2 | inactive: -0.398 |
| CGCCAUGAAUGUGAUUGGATT against Myo1e | inactive: -0.923 |
| CCACCCUAAUCCAUUUUUGTT against Baz2b | inactive: -0.885 |
| GCUAUGUCAUGGUUGGAACTT against Bag6 | inactive: 0.597 |
| UUGAGAGGCAAAGAGUGGUTT against Olfr1166 | inactive: -0.186 |
| GGGUGAGCCUUCCUGAAAATT against Pcdhgb4 | inactive: -0.0878 |
| CCUACAAGACUGUCUCUGGTT against Atp6v1b2 | inactive: -1.18 |
| GGUCCUGGACAAAGUGUUUTT against Tubgcp5 | active: 2.48 |
| GCACUAGCACACACGAUUUTT against Upp1 | inactive: -0.012 |
| GAUCUCAGCGGUUCUAUAGTT against Yipf4 | inactive: -0.196 |
| GGCUGUUUGGCUUGUUUAATT against Golga7 | inactive: 1.82 |
| GGUAGGCUAAAUAAAGAAGTT against Cisd2 | inactive: 0.166 |
| CCCGAAUUGACAACAUCGUTT against Olfr855 | inactive: 0.566 |
| GGCACUGGAAAUAAAACCCTT against S100a14 | inactive: -0.766 |

Look-ups from the results shown.
In z-score, CCUCCAGGUGUUGAUCUGUTT against Btbd11 has inactive: -0.186
In z-score, UUGAGAGGCAAAGAGUGGUTT against Olfr1166 has inactive: -0.186
